Results taken from PMC9166893.
These are yes or no findings as the source states them, for the method shown. In cells and extracts the contact can be indirect. Some results given as binding are weak or reduced against the parent protein; the word gives no strength. For part of these data: Where a sequence is shown, tags or fusion partners need not be part of it. Values belong to the substance of their own block, whether it stands above or below them.

Chains of the proteins cited; added tags and fusions are not shown. Lines headed by an entry give the natural chain unless they say otherwise; changes in a name come on top.
UniProt P68400: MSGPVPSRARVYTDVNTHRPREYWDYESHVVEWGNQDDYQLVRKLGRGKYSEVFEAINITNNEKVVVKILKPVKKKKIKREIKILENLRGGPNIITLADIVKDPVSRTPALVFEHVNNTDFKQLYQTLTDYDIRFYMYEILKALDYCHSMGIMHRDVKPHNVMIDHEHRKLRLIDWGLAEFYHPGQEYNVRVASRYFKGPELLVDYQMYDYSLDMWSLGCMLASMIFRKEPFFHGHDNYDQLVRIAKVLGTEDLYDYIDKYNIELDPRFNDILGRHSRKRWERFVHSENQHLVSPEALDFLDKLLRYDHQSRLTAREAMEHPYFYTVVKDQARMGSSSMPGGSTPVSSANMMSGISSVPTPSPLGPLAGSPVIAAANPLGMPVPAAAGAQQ
UniProt P19139: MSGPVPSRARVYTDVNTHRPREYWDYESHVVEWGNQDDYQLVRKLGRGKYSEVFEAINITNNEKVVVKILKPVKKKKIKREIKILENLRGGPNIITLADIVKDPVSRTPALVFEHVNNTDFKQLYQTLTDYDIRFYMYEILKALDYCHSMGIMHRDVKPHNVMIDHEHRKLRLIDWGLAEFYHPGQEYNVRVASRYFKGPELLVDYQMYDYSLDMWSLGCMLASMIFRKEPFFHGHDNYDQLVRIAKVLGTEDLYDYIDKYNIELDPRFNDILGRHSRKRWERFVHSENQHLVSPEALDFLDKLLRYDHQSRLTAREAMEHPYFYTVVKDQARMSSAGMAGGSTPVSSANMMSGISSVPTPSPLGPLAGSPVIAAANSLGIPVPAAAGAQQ
UniProt Q9HAW4: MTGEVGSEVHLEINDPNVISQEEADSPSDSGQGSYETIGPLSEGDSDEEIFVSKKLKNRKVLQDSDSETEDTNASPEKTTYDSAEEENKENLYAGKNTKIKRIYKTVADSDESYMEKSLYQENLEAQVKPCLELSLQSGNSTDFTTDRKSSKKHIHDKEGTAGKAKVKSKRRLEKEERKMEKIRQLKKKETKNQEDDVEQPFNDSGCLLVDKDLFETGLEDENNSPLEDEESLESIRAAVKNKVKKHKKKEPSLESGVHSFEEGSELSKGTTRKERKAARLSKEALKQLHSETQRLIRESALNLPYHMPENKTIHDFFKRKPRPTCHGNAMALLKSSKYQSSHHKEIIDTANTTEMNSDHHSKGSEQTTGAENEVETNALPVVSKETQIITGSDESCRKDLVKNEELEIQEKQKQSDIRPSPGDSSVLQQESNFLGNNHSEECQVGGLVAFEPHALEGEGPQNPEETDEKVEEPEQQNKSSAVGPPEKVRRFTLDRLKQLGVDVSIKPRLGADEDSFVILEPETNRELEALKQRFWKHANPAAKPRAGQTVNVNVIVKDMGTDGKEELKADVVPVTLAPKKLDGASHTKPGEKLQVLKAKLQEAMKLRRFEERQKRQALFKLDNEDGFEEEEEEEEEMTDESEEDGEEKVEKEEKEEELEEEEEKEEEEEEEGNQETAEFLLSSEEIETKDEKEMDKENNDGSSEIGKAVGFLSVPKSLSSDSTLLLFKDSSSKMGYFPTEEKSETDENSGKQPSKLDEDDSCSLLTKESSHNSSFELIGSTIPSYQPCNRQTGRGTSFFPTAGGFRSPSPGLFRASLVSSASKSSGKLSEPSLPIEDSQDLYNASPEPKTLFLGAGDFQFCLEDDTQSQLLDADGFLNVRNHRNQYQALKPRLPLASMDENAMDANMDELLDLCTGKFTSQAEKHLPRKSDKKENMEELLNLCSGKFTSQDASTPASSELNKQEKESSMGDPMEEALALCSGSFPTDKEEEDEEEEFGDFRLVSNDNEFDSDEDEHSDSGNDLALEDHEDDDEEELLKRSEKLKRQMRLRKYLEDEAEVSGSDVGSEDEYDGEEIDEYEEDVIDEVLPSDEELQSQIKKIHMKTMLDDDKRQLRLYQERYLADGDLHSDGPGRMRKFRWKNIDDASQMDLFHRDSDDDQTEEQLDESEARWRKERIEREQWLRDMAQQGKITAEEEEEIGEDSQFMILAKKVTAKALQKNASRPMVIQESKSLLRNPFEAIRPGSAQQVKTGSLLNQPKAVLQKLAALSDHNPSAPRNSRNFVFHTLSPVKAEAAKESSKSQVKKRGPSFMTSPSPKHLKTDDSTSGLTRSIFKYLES
UniProt D3Z822: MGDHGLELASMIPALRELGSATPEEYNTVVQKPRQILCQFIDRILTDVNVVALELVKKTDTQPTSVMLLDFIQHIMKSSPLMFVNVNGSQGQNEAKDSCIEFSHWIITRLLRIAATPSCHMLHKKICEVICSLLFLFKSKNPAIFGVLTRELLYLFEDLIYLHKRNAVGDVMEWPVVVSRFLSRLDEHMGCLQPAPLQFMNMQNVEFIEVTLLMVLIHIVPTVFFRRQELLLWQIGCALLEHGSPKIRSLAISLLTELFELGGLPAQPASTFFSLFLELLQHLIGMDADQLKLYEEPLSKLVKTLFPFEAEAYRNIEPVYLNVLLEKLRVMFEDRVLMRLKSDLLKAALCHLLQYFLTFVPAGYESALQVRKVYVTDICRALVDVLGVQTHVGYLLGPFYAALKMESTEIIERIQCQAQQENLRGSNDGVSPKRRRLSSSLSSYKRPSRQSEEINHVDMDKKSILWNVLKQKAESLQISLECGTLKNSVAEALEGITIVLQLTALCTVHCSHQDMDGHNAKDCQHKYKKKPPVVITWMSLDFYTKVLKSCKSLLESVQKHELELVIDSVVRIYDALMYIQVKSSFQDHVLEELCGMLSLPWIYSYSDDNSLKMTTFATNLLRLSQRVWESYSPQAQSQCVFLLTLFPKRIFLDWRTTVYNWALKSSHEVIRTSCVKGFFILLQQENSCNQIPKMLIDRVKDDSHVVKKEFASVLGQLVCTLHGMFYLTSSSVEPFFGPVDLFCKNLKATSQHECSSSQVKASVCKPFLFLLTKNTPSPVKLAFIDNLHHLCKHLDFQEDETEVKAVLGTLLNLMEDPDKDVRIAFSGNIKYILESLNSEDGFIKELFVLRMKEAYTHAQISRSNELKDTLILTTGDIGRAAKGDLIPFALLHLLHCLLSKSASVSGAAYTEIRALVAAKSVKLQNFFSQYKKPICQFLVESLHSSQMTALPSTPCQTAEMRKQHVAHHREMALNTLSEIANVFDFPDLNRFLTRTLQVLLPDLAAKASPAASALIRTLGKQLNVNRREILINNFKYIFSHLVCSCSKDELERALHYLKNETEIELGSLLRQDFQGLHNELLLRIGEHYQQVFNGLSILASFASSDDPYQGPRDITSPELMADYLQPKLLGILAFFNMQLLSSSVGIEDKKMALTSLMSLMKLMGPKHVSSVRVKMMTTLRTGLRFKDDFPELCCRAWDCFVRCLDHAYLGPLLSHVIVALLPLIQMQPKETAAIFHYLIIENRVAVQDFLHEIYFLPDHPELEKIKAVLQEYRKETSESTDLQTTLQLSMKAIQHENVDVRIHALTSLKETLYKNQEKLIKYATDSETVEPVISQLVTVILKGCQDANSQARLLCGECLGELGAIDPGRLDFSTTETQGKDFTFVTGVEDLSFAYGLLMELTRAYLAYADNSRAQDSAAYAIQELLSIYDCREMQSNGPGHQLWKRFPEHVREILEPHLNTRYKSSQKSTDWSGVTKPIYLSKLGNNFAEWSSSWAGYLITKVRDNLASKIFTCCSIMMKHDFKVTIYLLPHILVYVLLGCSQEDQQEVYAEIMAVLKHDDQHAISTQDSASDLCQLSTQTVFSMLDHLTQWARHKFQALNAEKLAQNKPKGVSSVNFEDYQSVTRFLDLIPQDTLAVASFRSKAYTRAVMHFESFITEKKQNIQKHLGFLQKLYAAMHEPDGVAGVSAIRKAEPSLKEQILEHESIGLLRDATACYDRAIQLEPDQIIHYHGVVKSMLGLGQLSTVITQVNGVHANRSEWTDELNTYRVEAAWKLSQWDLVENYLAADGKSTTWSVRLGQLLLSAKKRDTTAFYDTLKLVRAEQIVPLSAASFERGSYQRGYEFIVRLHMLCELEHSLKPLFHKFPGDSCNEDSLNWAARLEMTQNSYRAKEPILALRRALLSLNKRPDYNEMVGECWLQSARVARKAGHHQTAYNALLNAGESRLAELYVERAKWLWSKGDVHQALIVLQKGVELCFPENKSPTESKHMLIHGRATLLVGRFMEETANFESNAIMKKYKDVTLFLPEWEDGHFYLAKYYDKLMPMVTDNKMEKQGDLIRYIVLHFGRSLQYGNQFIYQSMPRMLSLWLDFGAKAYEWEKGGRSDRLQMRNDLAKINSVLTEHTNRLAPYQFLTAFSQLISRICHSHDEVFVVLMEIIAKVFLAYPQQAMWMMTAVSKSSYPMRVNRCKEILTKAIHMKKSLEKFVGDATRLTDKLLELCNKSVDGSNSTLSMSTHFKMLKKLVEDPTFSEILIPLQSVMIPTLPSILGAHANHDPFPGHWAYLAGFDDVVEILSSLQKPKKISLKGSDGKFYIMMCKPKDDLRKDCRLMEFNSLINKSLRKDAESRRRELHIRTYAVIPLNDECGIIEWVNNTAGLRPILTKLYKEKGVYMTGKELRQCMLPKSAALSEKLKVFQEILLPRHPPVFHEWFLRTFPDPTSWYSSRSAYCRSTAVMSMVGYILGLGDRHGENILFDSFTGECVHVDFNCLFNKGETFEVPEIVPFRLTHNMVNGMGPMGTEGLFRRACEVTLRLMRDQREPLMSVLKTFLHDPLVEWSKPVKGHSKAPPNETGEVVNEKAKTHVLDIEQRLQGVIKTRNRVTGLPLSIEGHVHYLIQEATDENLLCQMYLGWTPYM

Assays:
[1] = biological target: protein kinase CK2α, endogenous in human U2OS cells (human (endogenous in U2OS)) (UniProt P68400); assay: co-IP; whole cell lysate of U2OS cells, immunoprecipitation with anti-CK2α antibodies as in Fig. 5H, Western blot
HA-CHK1 = biological target: T1, HA-CHK1 (UniProt O14757); assay: co-IP; whole cell lysate of H9c2-CK2α-44 cells co-transfected with FLAG-CLSPN and HA-CHK1, immunoprecipitation with rabbit monoclonal anti-HA, Western blot; with or without Dox, with or without HU for 4 h
T1 sequence: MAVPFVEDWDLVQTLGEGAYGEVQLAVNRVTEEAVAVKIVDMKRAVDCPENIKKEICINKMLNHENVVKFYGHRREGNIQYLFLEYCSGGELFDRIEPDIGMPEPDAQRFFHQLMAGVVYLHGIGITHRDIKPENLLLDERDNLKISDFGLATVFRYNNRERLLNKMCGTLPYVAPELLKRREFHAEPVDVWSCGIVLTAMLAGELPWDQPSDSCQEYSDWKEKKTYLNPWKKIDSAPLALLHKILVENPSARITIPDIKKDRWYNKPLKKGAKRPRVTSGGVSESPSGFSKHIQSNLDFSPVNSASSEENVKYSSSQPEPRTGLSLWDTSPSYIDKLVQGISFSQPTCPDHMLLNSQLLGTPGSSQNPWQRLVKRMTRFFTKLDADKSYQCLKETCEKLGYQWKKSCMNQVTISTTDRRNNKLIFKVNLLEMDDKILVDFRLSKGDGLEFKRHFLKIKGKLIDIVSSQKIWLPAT

[2] = biological target: protein kinase CK2α, endogenous in rat H9c2-CK2α-44 myoblasts (rat (endogenous in H9c2)) (UniProt P19139); assay: co-IP; whole cell lysate of control H9c2-CK2α-44 cells, immunoprecipitation with rabbit polyclonal anti-CK2α serum or goat anti-CK2α antibody, Western blot
[3] = biological target: CLASPIN (CLSPN), endogenous in human U2OS cells (human (endogenous in U2OS)) (UniProt Q9HAW4); assay: co-IP; whole cell lysate of U2OS cells, immunoprecipitation with anti-CLSPN, Western blot; cells with or without CK2α-siRNA (56 h) and 3 mM HU for 4 h
[4] = biological target: T2, CDC45, endogenous in human U2OS cells (human (endogenous in U2OS)) (UniProt O75419); assay: co-IP; whole cell lysate of U2OS cells, immunoprecipitation with anti-CDC45, Western blot; cells with or without CK2α-siRNA (56 h) and 3 mM HU for 4 h
T2 sequence: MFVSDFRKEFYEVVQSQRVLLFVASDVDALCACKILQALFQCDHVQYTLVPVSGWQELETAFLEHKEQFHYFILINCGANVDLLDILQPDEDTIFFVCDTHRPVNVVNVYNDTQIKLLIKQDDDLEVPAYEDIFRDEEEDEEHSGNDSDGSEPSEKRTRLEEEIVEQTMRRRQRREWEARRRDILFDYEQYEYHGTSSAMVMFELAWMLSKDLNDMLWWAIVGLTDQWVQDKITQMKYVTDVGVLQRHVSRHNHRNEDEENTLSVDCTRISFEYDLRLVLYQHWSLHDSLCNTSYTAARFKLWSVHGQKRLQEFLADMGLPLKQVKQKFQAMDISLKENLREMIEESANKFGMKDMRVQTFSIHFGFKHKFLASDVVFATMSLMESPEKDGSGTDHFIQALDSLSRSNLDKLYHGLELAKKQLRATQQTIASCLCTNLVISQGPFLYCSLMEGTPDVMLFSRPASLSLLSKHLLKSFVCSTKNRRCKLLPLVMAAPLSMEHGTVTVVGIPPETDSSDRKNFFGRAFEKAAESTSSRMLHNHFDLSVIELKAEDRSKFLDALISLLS

Substance: ATR, endogenous in human U2OS cells (from UniProt Q13535 1-2644) (enzyme)
binding [1]: no binding

Substance: FLAG-CLSPN (from UniProt Q9HAW4 1-1339)
binding (HA-CHK1): binds

Substance: ataxia telangiectasia mutated and Rad3-related kinase (ATR), endogenous in rat H9c2-CK2α-44 myoblasts (from UniProt D3Z822 1-2636) (enzyme)
binding [2]: no binding

The remaining lines, values ahead:

binding [1]: binds
Substance: CLASPIN (CLSPN), endogenous in human U2OS cells (from UniProt Q9HAW4 1-1339)

binding [3]: binds
binding [4]: binds
Substance: protein kinase CK2α, endogenous in human U2OS cells (from UniProt P68400 1-391) (enzyme)
